## Drug screen on melanoma cell lines: cell count

Values as published with doi:10.1371/journal.pone.0140310, rounded.

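The test systems are human melanoma cell lines, treated with a pair of drugs for 72 h and then stained and imaged. The read-out is cell count (nuclei) in % of the DMSO control; lower values mean stronger growth inhibition or killing. Concentrations were fixed for each drug; these are the lower of two levels, a fifth of the higher. No replicate spread is given; individual values may be noisy.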 An unselected part of the screen is shown.

All values are for the listed drug together with vincristine (0.0001 µM): CC[C@]1(O)C[C@H]2CN(CCc3c([nH]c4ccccc34)[C@@](C(=O)OC)(c3cc4c(cc3OC)N(C=O)[C@H]3[C@@](O)(C(=O)OC)[C@H](OC(C)=O)[C@]5(CC)C=CCN6CC[C@]43[C@@H]65)C2)C1

Second drug,A2058,A101D,C32
NC(=O)Nc1cc(-c2cccc(F)c2)sc1C(=O)N[C@H]1CCCNC1 at 0.02 µM,45.7,65.0,88.2
OCCn1cc(-c2cnc3nnn(Cc4ccc5ncccc5c4)c3n2)cn1 at 1 µM,70.2,84.6,87.8
CC(=O)c1c(C)c2cnc(Nc3ccc(N4CCNCC4)cn3)nc2n(C2CCCC2)c1=O at 0.04 µM,19.8,65.7,65.1
C=C(c1ccc(C(=O)O)cc1)c1cc2c(cc1C)C(C)(C)CCC2(C)C at 2 µM,34.3,73.9,81.4
C[C@@H]1CCN(C(=O)CC#N)C[C@@H]1N(C)c1ncnc2[nH]ccc12 at 1 µM,41.4,77.4,90.2
CN(NC(=O)CC(=O)NN(C)C(=S)c1ccccc1)C(=S)c1ccccc1 at 0.006 µM,12.3,54.2,62.1
Cc1cc(N2CCOCC2)cc2[nH]c(-c3c(NC[C@@H](O)c4cccc(Cl)c4)cc[nH]c3=O)nc12 at 0.2 µM,22.4,63.6,80.9
Cn1cncc1[C@@](N)(c1ccc(Cl)cc1)c1ccc2c(c1)c(-c1cccc(Cl)c1)cc(=O)n2C at 0.01 µM,5.8,45.4,73.8
NCC(=O)Nc1ccc(-n2nc(C(F)(F)F)cc2-c2ccc3c(ccc4ccccc43)c2)cc1 at 1 µM,89.7,93.3,92.9
CN(C)S(=O)(=O)c1ccc2c(c1)/C(=C/c1cc3c([nH]1)CCCC3)C(=O)N2 at 0.4 µM,13.9,61.3,76.5
O=C1NC(=O)/C(=C/c2ccc(-c3ccc(F)cc3O)o2)S1 at 1 µM,35.4,92.3,94.1
Cn1c(=O)n(-c2ccc(C(C)(C)C#N)cc2)c2c3cc(-c4cnc5ccccc5c4)ccc3ncc21 at 0.004 µM,46.4,53.0,87.7
O=C(O)c1ccc(-c2c[nH]c3ncc(-c4ccccc4)cc23)cc1C1CCCC1 at 0.16 µM,20.1,63.0,95.8
CC(=O)O[C@@]12CO[C@@H]1C[C@H](O)[C@@]1(C)C(=O)[C@H](O)C3=C(C)[C@@H](OC(=O)[C@H](O)[C@@H](NC(=O)OC(C)(C)C)c4ccccc4)C[C@@](O)([C@@H](OC(=O)c4ccccc4)[C@H]21)C3(C)C at 0.0001 µM,9.6,76.9,87.3
COc1cc(Nc2ncc(F)c(Nc3ccc4c(n3)NC(=O)C(C)(C)O4)n2)cc(OC)c1OC at 0.4 µM,33.6,60.1,95.1
NC(=O)c1ccc(N(C(N)=O)c2c(F)cccc2F)nc1-c1ccc(F)cc1F at 0.4 µM,25.0,70.4,92.7
O=C(O)[C@@H]1[O][Sb](=[O])([O][Sb]2(=[O])[O][C@H]([C@H](O)CO)[C@H](O)[C@H](C(=O)O)[O]2)[O][C@H]([C@H](O)CO)[C@@H]1O (stereo partly shown) at 2 µM,84.2,99.5,88.5
N#CC[C@H](C1CCCC1)n1cc(-c2ncnc3[nH]ccc23)cn1 at 1 µM,84.1,104,92.2
CC1(C)NC(=O)N(c2ccc([N+](=O)[O-])c(C(F)(F)F)c2)C1=O at 1 µM,20.8,73.3,73.0
CC(C)(C)c1cnc(CSc2cnc(NC(=O)C3CCNCC3)s2)o1 at 0.01 µM,44.4,61.5,100
C[C@@H](Oc1cc(-c2cnn(C3CCNCC3)c2)cnc1N)c1c(Cl)ccc(F)c1Cl at 0.2 µM,34.2,67.0,77.7
CO[C@@H]1[C@H](N(C)C(=O)c2ccccc2)C[C@H]2O[C@]1(C)n1c3ccccc3c3c4c(c5c6ccccc6n2c5c31)C(=O)NC4 at 0.08 µM,48.4,74.3,82.1
C#Cc1cccc(Nc2ncnc3cc(OCCOC)c(OCCOC)cc23)c1 at 0.8 µM,12.2,50.5,84.7

The first 2 entries again:

Second drug,A2058,A101D,C32
NC(=O)Nc1cc(-c2cccc(F)c2)sc1C(=O)N[C@H]1CCCNC1 at 0.02 µM,45.7,65.0,88.2
OCCn1cc(-c2cnc3nnn(Cc4ccc5ncccc5c4)c3n2)cn1 at 1 µM,70.2,84.6,87.8